These are yes or no findings as the source states them, for the method shown. Binding seen in cells or lysates may run through a third protein. Some entries that bind do so weakly or less than the wild type. Each block holds one molecule with its values, some of them ahead of it.
Assays:
GST-SIRT1 = GST-SIRT1 (UniProt Q96EB6); test: pull-down; GST-SIRT1 or GST on Glutathione Sepharose 4B beads mixed with ultrasonic lysate of HeLa cells transfected with MICU1-HA (24 h); bound proteins detected by immunoblot with anti-HA and anti-GST; only the target purified
SIRT1-flag = SIRT1-flag (UniProt Q96EB6); test: co-IP; HeLa cells transfected with SIRT1-flag plus MICU1-HA (controls: SIRT1-flag plus pCMV-HA, pCMV-tag4a plus MICU1-HA), lysed after 24 h; 2 ug Flag or SIRT1 antibody overnight at 4 C, protein A agarose; Western blot
[1] = target: T1, SIRT1 (endogenous, rat cortical neurons) (rat (endogenous in primary cortical neurons)); test: co-IP; endogenous proteins in lysates of rat cortical neurons cultured for 7 days; immunoprecipitation with SIRT1 antibody, Western blot with anti-SIRT1 and anti-MICU1
T1 sequence: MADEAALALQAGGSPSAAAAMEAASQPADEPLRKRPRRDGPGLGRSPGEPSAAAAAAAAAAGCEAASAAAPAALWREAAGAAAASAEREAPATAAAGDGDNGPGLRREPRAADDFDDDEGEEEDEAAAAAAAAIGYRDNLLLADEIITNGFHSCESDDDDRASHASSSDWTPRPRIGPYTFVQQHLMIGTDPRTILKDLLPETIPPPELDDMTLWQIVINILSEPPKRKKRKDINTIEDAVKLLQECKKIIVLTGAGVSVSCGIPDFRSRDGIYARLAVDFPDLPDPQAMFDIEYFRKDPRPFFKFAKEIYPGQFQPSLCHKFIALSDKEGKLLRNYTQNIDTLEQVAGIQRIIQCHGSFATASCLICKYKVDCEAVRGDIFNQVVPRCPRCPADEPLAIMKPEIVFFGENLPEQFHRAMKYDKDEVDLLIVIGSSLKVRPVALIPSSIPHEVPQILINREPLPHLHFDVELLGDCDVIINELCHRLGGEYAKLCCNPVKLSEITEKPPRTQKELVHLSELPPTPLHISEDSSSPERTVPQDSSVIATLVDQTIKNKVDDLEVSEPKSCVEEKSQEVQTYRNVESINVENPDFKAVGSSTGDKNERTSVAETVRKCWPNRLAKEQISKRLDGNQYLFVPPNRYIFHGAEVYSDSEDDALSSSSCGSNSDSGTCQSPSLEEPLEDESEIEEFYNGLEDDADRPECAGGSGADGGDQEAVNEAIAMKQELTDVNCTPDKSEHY

Chains of the proteins cited; added tags and fusions are not shown. Residues count along the entry.
UniProt Q96EB6: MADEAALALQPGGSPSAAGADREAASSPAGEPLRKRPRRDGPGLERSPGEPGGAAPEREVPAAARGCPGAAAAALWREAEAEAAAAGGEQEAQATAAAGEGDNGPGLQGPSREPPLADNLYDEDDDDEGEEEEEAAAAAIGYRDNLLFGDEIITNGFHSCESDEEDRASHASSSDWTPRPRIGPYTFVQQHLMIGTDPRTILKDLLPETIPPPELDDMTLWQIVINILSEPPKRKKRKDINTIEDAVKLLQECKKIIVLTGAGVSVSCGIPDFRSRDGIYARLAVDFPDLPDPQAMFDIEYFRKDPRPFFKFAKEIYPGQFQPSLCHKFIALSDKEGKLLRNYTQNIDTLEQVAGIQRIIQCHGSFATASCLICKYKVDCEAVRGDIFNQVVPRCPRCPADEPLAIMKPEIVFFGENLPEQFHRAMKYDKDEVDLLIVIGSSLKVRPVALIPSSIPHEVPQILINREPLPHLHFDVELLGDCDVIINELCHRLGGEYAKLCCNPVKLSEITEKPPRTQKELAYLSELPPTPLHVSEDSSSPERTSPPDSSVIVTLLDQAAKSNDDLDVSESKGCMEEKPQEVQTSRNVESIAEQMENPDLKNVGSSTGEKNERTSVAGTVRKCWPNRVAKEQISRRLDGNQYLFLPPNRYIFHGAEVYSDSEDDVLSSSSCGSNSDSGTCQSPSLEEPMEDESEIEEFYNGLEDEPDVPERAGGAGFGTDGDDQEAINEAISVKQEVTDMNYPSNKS
UniProt Q9BPX6, residues 34-476: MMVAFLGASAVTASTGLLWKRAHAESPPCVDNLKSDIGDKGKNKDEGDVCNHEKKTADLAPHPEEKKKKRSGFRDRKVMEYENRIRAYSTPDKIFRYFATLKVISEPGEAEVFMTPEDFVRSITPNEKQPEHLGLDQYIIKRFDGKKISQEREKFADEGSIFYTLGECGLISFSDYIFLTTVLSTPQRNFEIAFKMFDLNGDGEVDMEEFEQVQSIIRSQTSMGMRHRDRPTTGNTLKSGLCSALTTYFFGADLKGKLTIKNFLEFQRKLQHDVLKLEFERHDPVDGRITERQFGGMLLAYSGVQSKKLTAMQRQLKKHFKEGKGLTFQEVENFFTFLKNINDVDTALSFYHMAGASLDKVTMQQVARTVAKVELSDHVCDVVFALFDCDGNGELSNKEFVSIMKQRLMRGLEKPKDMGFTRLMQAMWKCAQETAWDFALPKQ

binding (GST-SIRT1): binds
binding (SIRT1-flag): binds
Molecule: MICU1-HA (from UniProt Q9BPX6 34-476)

binding [1]: binds
B1: MICU1 (endogenous, rat cortical neurons) (protein, UniProt Q6P6Q9 34-477)
chain: MLVAFLGASAVTASTGLLWKKAHAESPPSVNSKKTDAGDKGKSKDTREVSSHEGSAADTAAEPYPEEKKKKRSGFRDRKVMEYENRIRAYSTPDKIFRYFATLKVINEPGETEVFMTPQDFVRSITPNEKQPEHLGLDQYIIKRFDGKKIAQEREKFADEGSIFYTLGECGLISFSDYIFLTTVLSTPQRNFEIAFKMFDLNGDGEVDMEEFEQVQSIIRSQTSMGMRHRDRPTTGNTLKSGLCSALTTYFFGADLKGKLTIKNFLEFQRKLQHDVLKLEFERHDPVDGRISERQFGGMLLAYSGVQSKKLTAMQRQLKKHFKDGKGLTFQEVENFFTFLKNINDVDTALSFYHMAGASLDKVTMQQVARTVAKVELSDHVCDVVFALFDCDGNGELSNKEFVSIMKQRLMRGLEKPKDMGFTRLMQAMWKCAQETAWDFALPK

— PMC11856031
